Consider 2 molecules from PMC9008841.

Results are given in words; binding and its absence hold for the method and conditions named. For some assays here: Binding seen in cells or lysates may run through a third protein. Some results given as binding are weak or reduced against the parent protein; the word gives no strength. For some assays here: Where a sequence is shown, tags or fusion partners need not be part of it.

One assay concerns the target T1, Cdk8-3HA (S. cerevisiae) (UniProt P39073).
T1 sequence: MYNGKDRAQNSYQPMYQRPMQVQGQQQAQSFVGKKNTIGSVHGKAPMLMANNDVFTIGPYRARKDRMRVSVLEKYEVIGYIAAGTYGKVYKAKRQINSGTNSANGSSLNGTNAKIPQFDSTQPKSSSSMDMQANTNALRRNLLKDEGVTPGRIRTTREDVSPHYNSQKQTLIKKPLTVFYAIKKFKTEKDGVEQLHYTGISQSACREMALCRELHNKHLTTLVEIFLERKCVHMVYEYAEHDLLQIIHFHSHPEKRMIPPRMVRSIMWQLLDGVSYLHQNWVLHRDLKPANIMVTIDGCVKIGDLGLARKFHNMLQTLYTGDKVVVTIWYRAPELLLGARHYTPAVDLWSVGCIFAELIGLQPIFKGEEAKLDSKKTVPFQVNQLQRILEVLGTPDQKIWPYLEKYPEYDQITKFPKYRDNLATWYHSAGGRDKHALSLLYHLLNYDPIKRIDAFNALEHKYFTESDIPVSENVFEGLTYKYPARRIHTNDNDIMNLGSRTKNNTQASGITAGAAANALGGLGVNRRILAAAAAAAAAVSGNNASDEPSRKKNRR
Put plainly: co-IP; whole cell lysates of wild type yeast harboring Rim15-MYC and Cdk8-3HA; 1 mg soluble protein immunoprecipitated with anti-Myc or anti-HA antibodies, Protein G beads; before and after 200 ng/ml rapamycin (interaction decreased after rapamycin).

The target in assay [1] is T2, Gal4-BD-Cdk8 (S. cerevisiae) (UniProt P39073).
T2 sequence: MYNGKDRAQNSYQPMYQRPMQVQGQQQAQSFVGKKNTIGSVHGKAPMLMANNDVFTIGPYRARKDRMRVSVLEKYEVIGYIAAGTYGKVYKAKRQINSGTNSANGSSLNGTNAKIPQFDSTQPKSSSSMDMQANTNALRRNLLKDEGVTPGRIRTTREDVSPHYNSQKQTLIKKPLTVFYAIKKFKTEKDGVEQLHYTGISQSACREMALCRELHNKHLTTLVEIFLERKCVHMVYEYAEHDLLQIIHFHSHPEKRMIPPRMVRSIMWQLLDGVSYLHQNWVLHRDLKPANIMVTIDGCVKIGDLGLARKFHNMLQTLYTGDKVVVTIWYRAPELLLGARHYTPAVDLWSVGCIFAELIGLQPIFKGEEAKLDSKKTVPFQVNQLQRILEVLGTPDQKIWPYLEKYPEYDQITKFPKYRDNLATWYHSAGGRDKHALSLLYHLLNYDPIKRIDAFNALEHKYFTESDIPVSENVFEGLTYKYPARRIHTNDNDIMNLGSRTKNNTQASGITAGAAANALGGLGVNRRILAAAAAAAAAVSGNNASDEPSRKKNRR
Put plainly: two-hybrid; Y2H Gold cells harboring Gal4-BD-Cdk8 and Gal4-AD-Rim15 subclones; read-out induction of the ADE2 and HIS3 reporter genes.

In the case of Rim15-MYC (from UniProt P43565 1-1770), in the assay with Cdk8-3HA (S. cerevisiae), the binding result is given as “binds”.

B1: Gal4-AD-Rim15 PAS domain (amino acids 1-121) (domain or fragment, UniProt P43565 1-121)
chain: MFNRSNTAGGSQAMKEGLGINKLSPISSNSNPSSLTSSNYEKYLQLATEKNPCMILELELDGKVRYGSPQWNTITGVADDSGSSPTYIADLILGSDQDKGVFQKATDMLLMNDDTSCTITF
In the case of B1, the binding entry in assay [1] is recorded as “binds”.
